Assay results taken from PubChem BioAssay (EPA / NIEHS).
“And” between values parts separate entries of the source, which are not always exact repeats. Identical values can stand only once. The inconclusive results got no clear call from the source; some entries with a clear call stand among them for comparison. For some of these results: A potency beside an inconclusive call is a rough fit, not a confirmed value. The source made the active and inactive calls. The calls were made as follows: active = hit-call score of the fitted dose curve at least 0.9, where 1 is the maximum; inconclusive = response in the unintended direction; inactive = score below 0.9.

Protein sequences, listed by entry. Tags and fused reporters are not part of them. Lines headed by an entry give the natural chain unless they say otherwise; changes in a name come on top.
UniProt P49884, whole entry, looked up: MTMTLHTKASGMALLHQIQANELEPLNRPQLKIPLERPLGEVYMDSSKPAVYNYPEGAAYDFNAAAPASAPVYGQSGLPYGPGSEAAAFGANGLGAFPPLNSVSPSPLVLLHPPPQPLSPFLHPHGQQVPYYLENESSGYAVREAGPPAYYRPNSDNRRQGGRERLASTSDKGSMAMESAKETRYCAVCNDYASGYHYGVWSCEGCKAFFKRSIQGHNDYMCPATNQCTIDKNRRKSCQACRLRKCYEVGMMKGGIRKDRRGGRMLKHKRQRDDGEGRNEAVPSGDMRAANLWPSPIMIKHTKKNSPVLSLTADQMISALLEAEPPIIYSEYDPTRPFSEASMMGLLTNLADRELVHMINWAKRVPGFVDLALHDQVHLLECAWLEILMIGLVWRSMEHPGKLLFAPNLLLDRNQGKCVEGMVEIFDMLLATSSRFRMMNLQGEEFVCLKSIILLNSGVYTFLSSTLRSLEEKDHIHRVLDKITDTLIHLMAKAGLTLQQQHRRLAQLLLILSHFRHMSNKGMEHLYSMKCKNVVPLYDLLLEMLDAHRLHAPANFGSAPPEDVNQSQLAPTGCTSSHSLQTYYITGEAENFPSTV
UniProt P10275: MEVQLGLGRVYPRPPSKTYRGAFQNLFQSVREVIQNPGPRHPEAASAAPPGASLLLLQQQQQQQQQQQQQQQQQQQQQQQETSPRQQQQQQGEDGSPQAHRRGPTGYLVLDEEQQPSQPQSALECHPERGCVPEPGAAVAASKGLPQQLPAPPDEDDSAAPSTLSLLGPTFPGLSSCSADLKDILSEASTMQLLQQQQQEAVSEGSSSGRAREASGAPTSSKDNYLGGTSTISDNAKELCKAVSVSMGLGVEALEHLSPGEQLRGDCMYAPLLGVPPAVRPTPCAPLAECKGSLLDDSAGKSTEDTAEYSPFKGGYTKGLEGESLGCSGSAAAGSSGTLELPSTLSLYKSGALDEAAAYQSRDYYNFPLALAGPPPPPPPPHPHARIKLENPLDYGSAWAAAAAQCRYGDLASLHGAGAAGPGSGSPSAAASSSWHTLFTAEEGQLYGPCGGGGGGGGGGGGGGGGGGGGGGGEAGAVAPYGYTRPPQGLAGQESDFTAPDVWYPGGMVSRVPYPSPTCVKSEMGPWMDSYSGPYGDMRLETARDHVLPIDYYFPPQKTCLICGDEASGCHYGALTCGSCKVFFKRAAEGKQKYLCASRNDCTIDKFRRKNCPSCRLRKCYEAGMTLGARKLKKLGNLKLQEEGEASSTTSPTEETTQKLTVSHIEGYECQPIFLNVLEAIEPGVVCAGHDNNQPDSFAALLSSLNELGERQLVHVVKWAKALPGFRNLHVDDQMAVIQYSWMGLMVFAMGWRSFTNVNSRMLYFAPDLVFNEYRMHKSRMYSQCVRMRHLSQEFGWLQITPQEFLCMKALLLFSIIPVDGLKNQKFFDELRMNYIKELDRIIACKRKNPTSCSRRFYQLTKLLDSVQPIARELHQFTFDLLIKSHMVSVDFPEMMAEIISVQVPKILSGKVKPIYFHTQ
UniProt O75469: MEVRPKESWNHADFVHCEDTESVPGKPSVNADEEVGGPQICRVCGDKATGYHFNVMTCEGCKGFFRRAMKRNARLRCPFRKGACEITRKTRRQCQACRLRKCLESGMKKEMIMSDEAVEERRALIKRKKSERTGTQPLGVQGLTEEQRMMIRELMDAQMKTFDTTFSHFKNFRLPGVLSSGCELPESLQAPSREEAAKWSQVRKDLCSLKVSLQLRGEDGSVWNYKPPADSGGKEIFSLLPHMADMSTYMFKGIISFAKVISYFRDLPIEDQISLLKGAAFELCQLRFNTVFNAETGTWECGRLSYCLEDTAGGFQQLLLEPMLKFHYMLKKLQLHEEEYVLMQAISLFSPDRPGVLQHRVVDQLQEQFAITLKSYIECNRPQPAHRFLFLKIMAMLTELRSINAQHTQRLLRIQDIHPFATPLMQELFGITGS
UniProt P16257, whole entry, looked up: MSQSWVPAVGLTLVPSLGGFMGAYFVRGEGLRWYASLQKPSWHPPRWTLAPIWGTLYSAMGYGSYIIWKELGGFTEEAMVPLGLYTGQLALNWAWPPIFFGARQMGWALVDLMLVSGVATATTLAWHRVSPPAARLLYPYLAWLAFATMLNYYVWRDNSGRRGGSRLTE
UniProt P37231: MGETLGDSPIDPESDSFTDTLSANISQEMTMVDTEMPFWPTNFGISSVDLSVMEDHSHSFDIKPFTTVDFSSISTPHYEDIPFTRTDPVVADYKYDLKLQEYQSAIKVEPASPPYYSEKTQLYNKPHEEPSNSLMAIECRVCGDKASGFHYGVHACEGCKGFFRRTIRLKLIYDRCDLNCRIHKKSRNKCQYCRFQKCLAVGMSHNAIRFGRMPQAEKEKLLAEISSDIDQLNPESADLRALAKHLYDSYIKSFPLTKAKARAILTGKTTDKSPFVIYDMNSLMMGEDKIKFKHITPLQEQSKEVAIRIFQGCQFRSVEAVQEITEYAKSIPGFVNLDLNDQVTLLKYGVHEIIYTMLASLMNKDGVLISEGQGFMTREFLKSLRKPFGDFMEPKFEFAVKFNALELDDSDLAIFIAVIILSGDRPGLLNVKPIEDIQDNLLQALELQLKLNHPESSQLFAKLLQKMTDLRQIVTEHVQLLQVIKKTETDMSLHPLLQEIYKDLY
UniProt P60484: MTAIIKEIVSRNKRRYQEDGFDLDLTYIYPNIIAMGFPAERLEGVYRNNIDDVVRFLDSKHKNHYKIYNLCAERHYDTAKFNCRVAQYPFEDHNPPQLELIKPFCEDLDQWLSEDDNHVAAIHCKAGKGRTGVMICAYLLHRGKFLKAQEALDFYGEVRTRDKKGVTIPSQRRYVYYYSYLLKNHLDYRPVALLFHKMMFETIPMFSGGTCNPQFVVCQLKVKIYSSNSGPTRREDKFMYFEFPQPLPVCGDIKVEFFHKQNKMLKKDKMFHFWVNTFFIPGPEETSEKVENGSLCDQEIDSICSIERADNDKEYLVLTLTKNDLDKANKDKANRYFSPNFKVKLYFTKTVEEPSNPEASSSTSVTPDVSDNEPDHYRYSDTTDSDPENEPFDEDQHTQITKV

How the values were obtained:
[1] = Tanguay_ZF_120hpf_CFIN_legacy: (Legacy) Oregon State University Tanguay Lab 120 Hour Post-fertilization zebrafish Assay for Caudal Fin Malformation (AID 2283649)
Method in brief: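 Binary presence or absence of caudal fin malformation at 120 hpf, read by brightfield microscopy, with DMSO as baseline. Larvae came from 5D wild-type embryos exposed statically from 6 hpf at 28C after pronase dechorionation.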

[2] = read-out: xenobiotic metabolism (CYP1A2), CYP1A2 (gene 1544); experiment: CLD_CYP1A2_6hr: CellzDirect (CLD) Gene Expression Assay for xenobiotic metabolism (CYP1A2) at 6 hours (AID 2283663);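 as to AC50: potency is for induction meaning a rise in mRNA above DMSO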
Method in brief: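 mRNA levels quantified by quantitative nuclease protection assay with chemiluminescence, 6 h after dosing human primary hepatocyte cultures (two donors) across several concentrations, vehicle 0.2% DMSO. Induction fitted upward versus DMSO; phase-contrast cytotoxicity annotated.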

[3] = Tanguay_ZF_120hpf_TR_legacy: (Legacy) Oregon State University Tanguay Lab 120 Hour Post-fertilization zebrafish Assay for Touch Response (AID 2283667)
Method in brief: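 Readout is presence or absence of touch response in 120 hpf zebrafish larvae, assessed by brightfield observation after continuous static exposure at 28C. Final vehicle was 0.64% (vol/vol) DMSO.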

[4] = read-out: xenobiotic metabolism (CYP1A1), CYP1A1 (gene 1543); experiment: CLD_CYP1A1_24hr: CellzDirect (CLD) Gene Expression Assay for xenobiotic metabolism (CYP1A1) at 24 hours (AID 2283673);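 also: CYP1A1 mRNA level by quantitative nuclease protection with chemiluminescence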
Method in brief: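 Transcript levels were read at 24 h by qNPA chemiluminescence in human liver primary cells. Cells got daily fresh dosing at multiple concentrations (vehicle 0.2% DMSO). Induction fitted upward against DMSO; phase-contrast cytotoxicity annotated.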

[5] = CCTE_Shafer_MEA_acute_AB: CCTE's Alamar Blue Assay for Cytotoxicity in the Neural Acute Assay, Shafer Lab (AID 2284069);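 also: active compounds lower the viability signal compared with DMSO wells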
Method in brief: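 Read-out: resazurin fluorescence (ex 544, em 590 nm) after CTB reagent at 1:6 dilution in fresh media. Cells: primary rat cortical neuron networks, DIV 13 or 15, chemically exposed on MEA plates; DMSO as negative control/baseline.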

[6] = CCTE_Shafer_MEA_dev_AB: CCTE's Alamar Blue Assay for Cytotoxicity in the Neural Network Formation Assay, Shafer Lab (AID 2284083);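 also: resazurin reduction fluorescence as viability of cultured neurons; twelve days of exposure from plating with re-dosing on DIV 5 and 9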
Method in brief: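 Rat cortical primary cultures, 1.5 x 10^5 cells/well on MEA; continuous compound exposure over 12 days of network development, re-dosed with full medium change DIV 5 and 9. Alamar Blue fluorescence; loss of signal = cytotoxicity vs DMSO baseline.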

[7] = CCTE_Mundy_HCI_Cortical_Synap_Neur_Matur_NeuronCount: CCTE's Synaptogenesis and Neurite Maturation Assay in rat cortical cells for Neuron Count, Mundy Lab (AID 2284242)
Method in brief: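 Measured at DIV 12: fluorescently labelled neurons (Hoechst nuclei, MAP2) in rat primary cortical cultures, counted by high-content imaging. AraC suppressed glia from DIV 5; DMSO served as negative control.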

[8] = read-out: sulfotransferase (SULT2A), SULT2A1 (gene 6822); experiment: CLD_SULT2A_6hr: CellzDirect (CLD) Gene Expression Assay for sulfotransferase (SULT2A) at 6 hours (AID 2283669);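 also: hits raise transcript level above the DMSO vehicle baseline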
Method in brief: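 Measured 6 h after dosing, SULT2A1 mRNA in human hepatocyte lysates was quantified by S1 nuclease protection with chemiluminescent detection. Increases fitted against 0.2% DMSO vehicle baseline; phase-contrast cytotoxicity recorded yes/no.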

[9] = read-out: xenobiotic metabolism (CYP1A2), CYP1A2 (gene 1544); experiment: CLD_CYP1A2_48hr: CellzDirect (CLD) Gene Expression Assay for xenobiotic metabolism (CYP1A2) at 48 hours (AID 2283703)
Method in brief: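 Cytotoxicity was flagged yes/no from morphology, while CYP1A2 transcript induction was detected by qNPA chemiluminescence after a 48-hour exposure. Human primary hepatocyte cultures from separate donors received fresh dosing solutions daily over two days, with 0.2% DMSO as vehicle and baseline.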

[10] = target: bovine Estrogen Receptor (ER), ESR1 (gene 407238) (UniProt P49884); experiment: NVS_NR_bER: NovaScreen (NVS) Nuclear Receptor Binding Assay for bovine Estrogen Receptor (ER) (AID 2283345);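 also: actives lower the bound radioligand count which means they displace the ER ligand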
Method in brief: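 Cell-free radioligand binding with receptor from bovine uterine membranes, read by scintillation counting 18 h after dosing. Loss of specific binding was scored against DMSO; primary screen at 25 uM in duplicate, actives then run as concentration series.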

[11] = target: Ratio of Nucleoli Translocation and Cytoplasm, AR (gene 367) (UniProt P10275); experiment: UPITT_HCI_U2OS_AR_TIF2_Nucleoli_Cytoplasm_Ratio_Antagonist: University of Pittsburgh U2OS Androgen Receptor-Transcriptional Intermediary Factor 2 (AR-TIF2) Antagonism High Content Imaging Assay for Ratio of Nucleoli Translocation and Cytoplasm (AID 2283999);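 also: antagonists lower the DHT-driven ratio of nucleolar to cytoplasmic red signal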
Method in brief: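 This antagonist-mode endpoint tracks AR-RFP localisation, the nucleolus-to-cytoplasm intensity ratio, in TIF2-GFP-coexpressing U2OS cells. DMSO stays at or below 0.5%; testing spans 20 uM single-dose and 0.195–50 uM series, with DHT setting the activity baseline.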

[12] = target: Nuclear receptor subfamily 1 group I member 2 (Homo sapiens) (UniProt O75469); experiment: NVS_NR_hPXR: NovaScreen (NVS) Nuclear Receptor Binding Assay for human Pregnane X Receptor (PXR) (AID 2283365);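 also: a drop in FRET signal versus DMSO baseline means the compound binds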
Method in brief: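 Human PXR protein, cell-free; compound added, incubated 2 h, TR-FRET read. Signal decrease vs DMSO = binding. Screened 25 uM duplicate, actives re-run as dilution series.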

[13] = Tanguay_ZF_120hpf_EYE_legacy: (Legacy) Oregon State University Tanguay Lab 120 Hour Post-fertilization zebrafish Assay for Eye Malformation (AID 2283636)
Method in brief: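 Static waterborne exposure of dechorionated zebrafish embryos (strain Tropical 5D), 6 to 120 hpf, sealed plates at 28C, 0.64% DMSO vehicle. Eye malformation is scored as a binary endpoint, with gain of signal analysed relative to DMSO.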

[14] = read-out: xenobiotic metabolism (CYP1A2), CYP1A2 (gene 1544); experiment: CLD_CYP1A2_24hr: CellzDirect (CLD) Gene Expression Assay for xenobiotic metabolism (CYP1A2) at 24 hours (AID 2283683)
Method in brief: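 CYP1A2 mRNA induction measured by quantitative nuclease protection (chemiluminescent) in human primary hepatocytes 24 h after multi-concentration chemical dosing with daily fresh solutions. DMSO (0.2%) baseline; positive-direction fitting; morphology-based cytotoxicity noted.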

[15] = target: rat Peripheral-type Benzodiazepine Receptor (PBR), Tspo (gene 24230) (UniProt P16257); experiment: NVS_MP_rPBR: NovaScreen (NVS) Membrane Protein Assay for rat Peripheral-type Benzodiazepine Receptor (PBR) (AID 2283335)
Method in brief: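 Single-concentration duplicate screening at 25 uM preceded concentration-series retesting of actives. Binding of a specific radioligand to rat kidney membrane PBR was read by filtration radiodetection after 1 h, with plate-wise positive and negative controls.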

[16] = target: Peroxisome proliferator-activated receptor gamma (Homo sapiens) (UniProt P37231); experiment: NVS_NR_hPPARg: NovaScreen (NVS) Nuclear Receptor Binding Assay for human Peroxisome Proliferator-activated Receptor gamma (PPARg) (AID 2283370)
Method in brief: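 Chemicals were tested first in duplicate at 25 uM, then in concentration series if active. Binding to cell-free PPARg protein was measured by fluorescence polarization after 2 h, with loss of signal scored against DMSO.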

[17] = target: human Phosphatase and Tensin Homolog (PTEN), PTEN (gene 5728) (UniProt P60484); experiment: NVS_ENZ_hPTEN: NovaScreen (NVS) Enzymatic Assay for human Phosphatase and Tensin Homolog (PTEN) (AID 2283203)
Method in brief: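 Loss of fluorescent product signal after mobility-shift separation reports PTEN activity, recombinant human enzyme, 1 h after compound addition. Single 25 uM duplicate screen, then concentration-response on actives; DMSO baseline.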

[18] = test system: chicken Androgen Receptor (AR), gene 422165; experiment: ATG_chAR_XSP2: Attagene TRANS-FACTORIAL Multi-Species (XSP2) HepG2 Assay for chicken Androgen Receptor (AR) (AID 2283819);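 also: GAL4-driven reporter transcript measured by RT-PCR then capillary electrophoresis; hits raise reporter mRNA above DMSO so potency is for activation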
Method in brief: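 Readout is reporter mRNA induction via RT-PCR/capillary electrophoresis after 24 h chemical exposure, positive direction relative to DMSO. Transiently transfected HepG2 express chimeric chicken AR–GAL4; AR stimulated by 3 nM 6-alpha-fluorotestosterone and 1.5 nM norgestrel.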

[19] = ATG_M_19_XSP2: Attagene TRANS-FACTORIAL Multi-Species (XSP2) HepG2 Assay for M32 Transcription Factor (Internal Marker) (AID 2283822)
Method in brief: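 Internal background marker in a multi-species nuclear receptor TRANS panel: transfected HepG2 cells exposed 24 h, with 3 nM 6-alpha-fluorotestosterone and 1.5 nM norgestrel present. Readout is RT-PCR of reporter transcripts resolved by capillary electrophoresis, gain-of-signal versus DMSO.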

[20] = ATG_XTT_Cytotoxicity: Cytotoxicity Assessment in the Attagene TRANS-FACTORIAL HepG2 Assay (AID 2283584);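 also: cells exposed to compound for 24 h before reading; active means loss of viability signal versus DMSO baseline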
Method in brief: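 Cells: human HepG2, transiently transfected with MRTU reporter constructs. Exposure 24 h. Readout: XTT, cell number. Baseline/neg ctrl DMSO; loss-of-signal scored.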

In the case of CN1COCN(Cc2cnc(Cl)s2)C1=N[N+](=O)[O-], the AC50 [1] is reported as inconclusive: 50.9 µM, the outcome [2] is reported as “inactive” and the AC50 [3] is reported as inconclusive: 202 µM. For the same compound, the outcome [4] was “inactive”, the AC50 [5] was inconclusive: 20 µM and the AC50 [6] was inconclusive: 0.0608 µM. The outcome [7] was “inactive”.

In the case of O=C(O)c1nc(Cl)ccc1Cl, the AC50 [8] is reported as inconclusive: 20 µM and inconclusive: 0.53 nM, the AC50 [4] is reported as inconclusive: 0.215 µM and the AC50 [9] is reported as inconclusive: 20 µM.

In the case of CCOc1cc(C(C)(C)C)ccc1C1COC(c2c(F)cccc2F)=N1 (stereo not given), the AC50 [10] is reported as inconclusive: 25 µM, the AC50 [9] is reported as active: 20 µM and the AC50 [11] is reported as inconclusive: 50 µM. The AC50 [5] was inconclusive: 20 µM.

With CN(C)N=O the AC50 [12] was inconclusive: 25 µM and the outcome [13] was “inactive”.

With O=C(Nc1ccccc1)Nc1ccnc(Cl)c1 the AC50 [13] was inconclusive: 202 µM, the AC50 [8] was inconclusive: 20000 nM and the AC50 [14] was active: 7.19 µM.

For NNC(=S)NN, the outcome [10] was “inactive”.

In the case of CCCCOC(=O)c1ccccc1C(=O)O, the AC50 [15] is reported as inconclusive: 1.37 µM, the outcome [16] is reported as “inactive” and the AC50 [2] is reported as inconclusive: 0.112 µM. The AC50 [8] was inconclusive: 0.4 nM and the AC50 [4] was inconclusive: 1.89 µM.

For CCN(CC)C(=O)Cl, the AC50 [17] was inconclusive: 0.028 µM.

With O=C(O)c1cc(Oc2ccc(C(F)(F)F)cc2Cl)ccc1[N+](=O)[O-] the AC50 [2] was inconclusive: 20 µM, the AC50 [8] was active: 4.42 nM and the AC50 [4] was inconclusive: 0.0542 µM. The AC50 [9] was inconclusive: 0.0061 µM and the AC50 [5] was inconclusive: 20 µM.

In the case of COP(N)(=S)OC, the AC50 [17] is reported as inconclusive: 25 µM.

With N#Cc1ccccc1Cl the AC50 [17] was inconclusive: 0.254 µM.

In the case of CC(C)C1(C)N=C(c2nc3ccccc3cc2C(=O)O)NC1=O (stereo not given), the outcome [13] is reported as “inactive”, the AC50 [1] is reported as inconclusive: 34.9 µM and the AC50 [2] is reported as inconclusive: 0.155 µM. The outcome [8] was “inactive”.

For Clc1ccc(C(c2ccc(Cl)cc2)C(Cl)(Cl)Cl)cc1, the AC50 [13] was inconclusive: 142 µM, the AC50 [3] was inconclusive: 15.5 µM and the AC50 [18] was inconclusive: 0.918 µM. For the same compound, the AC50 [19] was inconclusive: 100 µM.

With O=[N+]([O-])O.O=[N+]([O-])O.[Cd] the AC50 [20] was active: 12.3 µM.

In the case of CCOC(=O)N(C)N=O, the AC50 [20] is reported as inconclusive: 100 µM.

In the case of Cc1ccc(OP(=O)(Oc2ccc(C)cc2)Oc2ccc(C)cc2)cc1 (tested in a mixture with another compound), the AC50 [15] is reported as active: 150 nM and active: 5.34 µM, the AC50 [12] is reported as inconclusive: 25 µM and the AC50 [5] is reported as inconclusive: 15 µM. For the same compound, the outcome [6] was “inactive”.

For ClC1=C(Cl)[C@]2(Cl)[C@@H]3[C@H]4C[C@H]([C@@H]5O[C@H]45)[C@@H]3[C@@]1(Cl)C2(Cl)Cl, the AC50 [10] was inconclusive: 0.529 µM, the AC50 [20] was inconclusive: 0.00327 µM and the AC50 [1] was active: 66.1 µM. The AC50 [3] was active: 81.5 µM and the AC50 [6] was inconclusive: 0.344 µM.

In the case of CCCCN(CCCC)N=O, the outcome [12] is reported as “inactive” and the outcome [3] is reported as “inactive”.

In the case of CCCCCCCCCCCCCCCC[N+](C)(C)C, the AC50 [12] is reported as active: 0.899 µM.
